# Data source: PubChem BioAssay AID1053209 (Peter MacCallum Cancer Centre, 2014)
# Aim: 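Knock-downs that sensitise mouse osteosarcoma cells to doxorubicin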 (follow-up of hits)
# Cell system: mouse primary osteosarcoma cells
# Reagents: single siRNA against mouse genes, 25 nM (text also states 40 nM)
# Timing: about 120 h (48 h before drug, then 72 h with drug)
# Treatment: doxorubicin 100 nM (about IC30-40), added 48 h after transfection, for 72 h
# Measured: 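Viability measured by ATP luminescence with and without doxorubicin, each replicate scaled to non-targeting siRNA NT1, averaged over two replicates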
# Scale: viability with doxorubicin, vs NT1: higher = more viable cells under doxorubicin; viability ratio, doxorubicin over no drug: higher = less sensitisation to doxorubicin; viability without drug, vs NT1: higher = more viable cells without drug
# Active means: 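Counted as active (class LC dox) if viability falls to 0.7 of NT1 or below under doxorubicin but stays within 0.7 to 1.1 without drug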
# Shown is one part, drawn at random, of about 1,580 reagents tested. 207 of them (13%) count as active. 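Rows are single siRNAs; four siRNAs per gene were tested, a gene counting as confirmed only when at least two agree.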 Entries without a mark were called inactive. Reagents against one gene are numbered here.
target,reagent,combined effect class,"viability with doxorubicin, vs NT1","viability ratio, doxorubicin over no drug","viability without drug, vs NT1"
Eef1a1,1,normal viability with and without drug,0.85,0.87,0.98
Eef1a1,2,low viability only with doxorubicin; normal without drug (active),0.62,0.76,0.82
Eef1a1,3,low viability only with doxorubicin; normal without drug (active),0.62,0.86,0.72
Eef1a1,4,low viability with and without drug,0.43,0.9,0.48
Hspa9,1,low viability with and without drug,0.48,0.8,0.6
Hspa9,2,low viability with and without drug,0.38,0.6,0.63
Hspa9,3,low viability with and without drug,0.45,0.94,0.48
Hspa9,4,normal viability with and without drug,0.9,0.92,0.98
Supt16,1,normal viability with and without drug,0.85,0.97,0.88
Supt16,2,normal viability with and without drug,0.78,0.86,0.91
Supt16,3,low viability only with doxorubicin; normal without drug (active),0.56,0.68,0.82
Supt16,4,low viability only with doxorubicin; normal without drug (active),0.67,0.71,0.94
Sf3b4,1,normal viability with and without drug,0.86,0.9,0.96
Sf3b4,2,normal viability with and without drug,0.84,0.91,0.92
Sf3b4,3,normal viability with and without drug,1.02,0.96,1.06
Sf3b4,4,low viability with and without drug,0.19,0.35,0.55
Psma3,1,low viability with and without drug,0.16,0.27,0.59
Psma3,2,low viability with and without drug,0.29,0.41,0.7
Psma3,3,low viability with and without drug,0.31,0.5,0.62
Psma3,4,low viability with and without drug,0.24,0.77,0.31
Hrk,1,normal viability with and without drug,1.06,1.01,1.05
Hrk,2,high viability only with doxorubicin,1.12,1.1,1.02
Hrk,3,normal viability with and without drug,0.88,0.9,0.98
Hrk,4,normal viability with and without drug,0.99,1,0.99

Not a retest: entries from further up.
target,reagent,combined effect class,"viability with doxorubicin, vs NT1","viability ratio, doxorubicin over no drug","viability without drug, vs NT1"
Supt16,1,normal viability with and without drug,0.85,0.97,0.88
Supt16,2,normal viability with and without drug,0.78,0.86,0.91
Supt16,3,low viability only with doxorubicin; normal without drug (active),0.56,0.68,0.82
